The text below walks through data of paper PMC10060162, “Structural basis of mitochondrial membrane bending by the I–II–III2–IV2 supercomplex” (Nature, 2023).

These are yes or no findings as the source states them, for the method shown. In cells and extracts the contact can be indirect. Binding calls can cover weak binding; strength is not graded here.

This assay addresses NDUCA1 (Tetrahymena thermophila). The experiment in a line: cryo-EM structure; single-particle cryo-EM of the native supercomplex co-purified from T. thermophila mitochondria; buffer D (25 mM HEPES-KOH pH 7.5, 25 mM KCl, 5 mM MgCl2, 0.1% w/v digitonin); 2.9 Å overall, masked refinements 2.6-3.0 Å; both purified.

B1: COX3b (protein, UniProt Q950Y6 1-594)
chain: MLICNFLMYSNFSRIYWFDFNGTVNENLPLNYNVLKICRNEINKLEKLNENNLGTQKNPIKLNLSFEDKHYNTNNLVLDLNSYETFNSKNFISSIFDKTFESLNTVLMAPIYSFLEFKLKLSSTKINTNHYYVINGKLYITYNDSFKLFTTINDYFNDLNELSNTKLFFLYRSFNIYNIKLNSLVDFVFLKLILFIHLLYLKSTNYNRFDYRLKQTDWGFYINNNSNYIQNIFSGLKYIWRGLRFWIIGLLLGLSSIYYLMYVRLLPFNKIIFAWILVAMFLYWLLSGFVFFVKKYQYSKFTAAIQRFWKRTYIIFWVIEAGTFSVFFYLTLNASSEPVYMYDQIKIYKTHLFSWRWFLIKLLPSVSIILLGYYLQLTLKWNLFNKQNTIVLLITLLLLYILWLEFYQFYHILSFYGNINWAFDYDEYIWTLELDTRRTRLANNYIAICLFAKFWHFVFIFLFWVFFVLRINELGRIRYPLLVANVQNFIIIYIMSWAYMYPWLKFIFRKYLDVPYYWFYLNGRELGIRVFFTDLKLFFYGITNRLFDFNPSSIKFEKYPFYYWINSSQLTEFNQYRKFVIRDSIIYSLNNYII
B1: the binding result is “binds”.
